These results are taken from PubChem BioAssay AID1487 (National Center for Advancing Translational Sciences (NCATS), 2009).

This assay is described as follows: qHTS Assay for Modulators of Lamin A Splicing. The settings on record: HeLa LMNA splicing GFP/RFP minigene ratio, 48 h. Summed up:
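S3 HeLa cells stably expressing lamin A-EGFP splicing minigene plus DsRed2, 600 cells/well, 48 h compound exposure at 37C. Laser-scanning cytometry; analysed as GFP (500-530 nm)/RFP (575-640 nm) total intensity ratio; 0.5% DMSO vehicle.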
A general note: In qHTS, concentration-response curves come from the screen itself.

Where [1] appears, read: measured here: RFP viability control channel.
The mark [2] stands for this setting: measured here: GFP splicing reporter channel.

Some of the results follow. Further columns of the screen follow, without active or inactive calls. Most of these compounds were active or inconclusive in the main read-out, so they are no random draw. The note in brackets gives the kind of curve behind each potency; many fits are weak.

Consider `COc1ccccc1N1CCN(CCN(C(=O)C2CCCCC2)c2ccccn2)CC1`, for which the AC50 (in general, the midpoint of the concentration-response curve, whichever way the signal moves) under setting [1] was 5.62 µM [falling, single point].

In the case of `CCOC(=O)C1=C(c2ccccc2)NC(=O)N(C(C)=O)C1c1cccc([N+](=O)[O-])c1` (centres undefined), the AC50 under setting [2] is 0.0112 µM [falling, full curve, poor fit].

As for `CCOc1ccc(NS(=O)(=O)c2ccc3[nH]c4c(c3c2)CCCCC4)cc1`, the AC50 under setting [2] was 12.6 µM [falling, partial curve] and the AC50 under setting [1] was 12.6 µM [falling, partial curve].

Consider `CC1(C)C(=O)OC(c2cccs2)C2(CCCCC2)C1=O` (centres undefined), for which the half-maximal activity concentration (AC50) under setting [1] is 35.5 µM [falling, single point].

`Cc1cc(NCc2ccccc2)nc(-c2ccccc2O)n1`: the AC50 under setting [1] was 12.6 µM [rising, single point].

`CC(C)CCN1C(=O)c2ccc(C(=O)Nc3cccc(S(N)(=O)=O)c3)cc2C1=O`: the AC50 under setting [1] was 35.5 µM [falling, single point].

In the case of `CCOC(=O)c1ccc(NC(=O)c2ccccc2N(C)S(=O)(=O)c2ccccc2)cc1`, the AC50 under setting [1] was 17.8 µM [rising, partial curve, poor fit].

Regarding `O=c1[nH]c(CN2CCN(S(=O)(=O)/C=C/c3ccccc3)CC2)nc2ccccc12`, the AC50 under setting [1] is 1.58 µM [rising, full curve, poor fit].

As to `CCN(CC)CCCNC(=O)Cc1csc2nc(-c3ccc(Cl)cc3)cn12`, the AC50 under setting [2] was 39.8 µM [falling, partial curve, poor fit].

Consider `C=C(C)CN(CC)C(=O)CSc1nc(O)cc(=O)n1C1CCCC1`, for which the AC50 under setting [2] is 0.01 µM [falling, full curve, poor fit].

Consider `C[C@@H](C(=O)NCCc1c[nH]c2ccccc12)[C@H]1C[C@]1(C)[C@H](NC(=O)OCc1ccccc1)c1ccccc1`, for which, under setting [1], the AC50 is 12.6 µM [rising, partial curve].

`CC(=O)[C@H]1CC[C@H]2C3CC=C4C[C@@H](O)CC[C@]4(C)C3CC[C@]12C` (some centres undefined): the AC50 was 35.5 µM [rising, single point] under setting [2] and 35.5 µM [rising, single point] under setting [1].

In the case of `CCCCc1ccc(C2C3=C(CC(C)(C)CC3=O)NC3=C2C(=O)c2ccccc23)cc1` (centres undefined), the AC50 under setting [1] is 35.5 µM [rising, single point].

Take `COc1cccc(Nc2ncc3nc(-c4ccc(F)cc4)c(=O)n(C)c3n2)c1`: the AC50 under setting [1] is 11.2 µM [falling, partial curve].

Consider `CCN1CCN(Cc2c(O)ccc3c2O/C(=C\c2ccc(C)cc2)C3=O)CC1`, for which the AC50 under setting [2] is 0.0112 µM [falling, full curve, poor fit].

`COc1ccc2c(c1)O[C@H](c1ccc3c(c1)OCO3)[C@@H](OC(=O)Nc1cc(OC)c(OC)c(OC)c1)C2=O`: the AC50 was 7.94 µM [rising, partial curve] under setting [2] and 7.08 µM [rising, partial curve] under setting [1].

Consider `CCCCCOC(=O)NC1CCS(=O)(=O)C1` (centres undefined), for which the AC50 under setting [2] is 12.6 µM [rising, single point].

As to `CC(CCc1ccccc1)NC(=O)Cn1c(=O)nc(-c2ccccc2)c2ccccc21` (centres undefined), the half-maximal activity concentration (AC50) under setting [2] is 22.4 µM [falling, partial curve].

Regarding `COc1cc(OC)c(N(C)S(=O)(=O)c2cccc(C(=O)OCC(=O)c3c[nH]c4ccccc34)c2)cc1Cl`, the AC50 under setting [1] is 11.2 µM [rising, partial curve].

Regarding `COc1ccc(NC(=S)NC(NC(=O)c2ccc(Cl)cc2Cl)C(Cl)(Cl)Cl)c([N+](=O)[O-])c1` (centres undefined), the AC50 reads like this: under setting [2], 35.5 µM [rising, single point]; under setting [1], 20 µM [rising, single point].

In the case of `CCOC(=O)N1CCN(C(=O)c2ccc(CNS(=O)(=O)c3ccc(C)cc3)cc2)CC1`, under setting [2], the AC50 is 31.6 µM [rising, single point].

With `CCOC(=O)/C(=C/c1ccc(OC(=O)c2ccncc2)cc1)C(C)=O`, the AC50 under setting [2] was 0.355 µM [falling, full curve, poor fit].

With `CN(C)C(=S)SCC(=O)Nc1cccc(C(F)(F)F)c1`, the concentration at half-maximal activity (AC50) under setting [2] was 10 µM [rising, partial curve, poor fit] and the AC50 under setting [1] is 10 µM [rising, single point].

As for `O=C(Cc1ccc(-c2ccccc2)cc1)NCCS(=O)(=O)N1CCN(c2ccccc2)CC1`, under setting [2], the AC50 was 0.01 µM [falling, full curve, poor fit].

For `O=C(CSCc1ccccc1Br)N/N=C/c1ccc(OCC(=O)N2CCCCC2)cc1`, under setting [1], the half-maximal activity concentration (AC50) was 35.5 µM [rising, single point].

`COc1ccc(CCNC(=O)CSc2cn(Cc3cccc(C)c3)c3ccccc23)cc1OC`: the AC50 under setting [1] was 12.6 µM [rising, partial curve].

Regarding `Cc1ccn2c(=O)cc(COc3cccc(NC(=O)Nc4cccc(Cl)c4C)c3)nc2c1`, the AC50 reads like this: under setting [2], 17.8 µM [falling, single point]; under setting [1], 22.4 µM [falling, partial curve].

As to `COc1cccc(NC(=S)NC2CC3CCCC(C2)N3CC(C)C)c1` (centres undefined), the AC50 under setting [1] was 0.2 µM [falling, full curve, poor fit].

On to `O=C(OCC(=O)c1c[nH]c2ccccc12)c1cc(Br)ccc1O`, for which the AC50 is 35.5 µM [falling, single point] under setting [2] and 35.5 µM [falling, partial curve] under setting [1].

In the case of `O=c1c2c(nc3c(-c4ccccc4)c[nH]n13)CCCC2`, the concentration at half-maximal activity (AC50) under setting [1] was 22.4 µM [rising, single point].

For the compound `CCOc1ccc(/C=C/C2=Cc3c(sc(NC(=O)CSc4n[nH]c(N)n4)c3C#N)C(C)(C)C2)cc1`, the concentration at half-maximal activity (AC50) by setting is: under setting [2], 15.8 µM [falling, single point]; under setting [1], 15.8 µM [falling, partial curve].

As to `Cn1c(SCC2CCCO2)nnc1-c1cccc([N+](=O)[O-])c1` (centres undefined), the concentration at half-maximal activity (AC50) under setting [1] is 1.78 µM [falling, full curve, poor fit].

With `Cc1cc(Nc2cccc(C(F)(F)F)c2)nc2ccc(NC(=O)c3cccc(Cl)c3)cc12`, the AC50 under setting [2] was 35.5 µM [falling, single point].

For the compound `Cc1sc2nc(SCC(=O)NCCO)n(-c3ccccc3)c(=O)c2c1C`, under setting [1], the AC50 was 0.02 µM [falling, full curve, poor fit].

With `N/C(=N\c1nc2ccccc2o1)NC(=O)C(Cc1ccccc1)N1C(=O)c2ccccc2C1=O` (centres undefined), the AC50 was 35.5 µM [rising, single point] under setting [2] and 35.5 µM [rising, single point] under setting [1].
